The other results are listed elsewhere or left out. At the low end of the ranking the order means little.

The assay deals with T1, PUM1 PUF domain R2-VFQ R3-THE R4-TFR N899V + Y900F + C935T + R936H + Q939E + N971T + H972F + Q975R (UniProt Q14671).
T1 sequence: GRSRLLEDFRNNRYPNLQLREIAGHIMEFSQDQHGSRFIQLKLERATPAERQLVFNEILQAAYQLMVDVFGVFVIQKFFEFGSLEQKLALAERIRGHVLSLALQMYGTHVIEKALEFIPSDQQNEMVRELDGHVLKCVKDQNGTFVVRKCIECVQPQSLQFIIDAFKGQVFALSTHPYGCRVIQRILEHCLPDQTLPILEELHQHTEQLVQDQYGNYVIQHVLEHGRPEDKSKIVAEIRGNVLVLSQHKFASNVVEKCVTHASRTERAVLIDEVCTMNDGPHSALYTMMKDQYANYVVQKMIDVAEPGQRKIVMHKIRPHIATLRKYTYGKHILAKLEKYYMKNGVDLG
The note with it: yeast three-hybrid, YBZ-1, SC-Leu-His + 0.5 mM 3-AT, 4 days.
Take “GGCUAGAACUAGUGGAUCCCCCGGCGCCCGGCGGCUCGAGCCCGGGUAAGGCAGUGAAGUCUGCAUGCCGCCGGGCGCCAUGCCUGCAGGUCGACUCUAGAAAACAUG”: the binding signal (log2 enrichment (interaction score)) is -4.99.
Consider “GGCUAGAACUAGUGGAUCCCCCGGCGCCCGGCGGCUCGAGCCCGGGUAAGUAAGUGUAGUCUGCAUGCCGCCGGGCGCCAUGCCUGCAGGUCGACUCUAGAAAACAUG”, for which the binding signal (log2 enrichment (interaction score)) was -5.12.
As for “GGCUAGAACUAGUGGAUCCCCCGGCGCCCGGCGGCUCGAGCCCGGGUAAGGUUCGAUAGUCUGCAUGCCGCCGGGCGCCAUGCCUGCAGGUCGACUCUAGAAAACAUG”, the binding signal (log2 enrichment (interaction score)) was -4.53.
With “GGCUAGAACUAGUGGAUCCCCCGGCGCCCGGCGGCUCGAGCCCGGGUAAGAUGACGUAGUCUGCAUGCCGCCGGGCGCCAUGCCUGCAGGUCGACUCUAGAAAACAUG”, the binding signal (log2 enrichment (interaction score)) is -5.94.
The result for “GGCUAGAACUAGUGGAUCCCCCGGCGCCCGGCGGCUCGAGCCCGGGUAAGUUUAUAGUGUCUGCAUGCCGCCGGGCGCCAUGCCUGCAGGUCGACUCUAGAAAACAUG” reads -5.21.
Regarding “GGCUAGAACUAGUGGAUCCCCCGGCGCCCGGCGGCUCGAGCCCGGGUAAGGGUAAGGCGUCUGCAUGCCGCCGGGCGCCAUGCCUGCAGGUCGACUCUAGAAAACAUG”, the binding signal (log2 enrichment (interaction score)) was -5.69.
For “GGCUAGAACUAGUGGAUCCCCCGGCGCCCGGCGGCUCGAGCCCGGGUAAGUUGGCGAUGUCUGCAUGCCGCCGGGCGCCAUGCCUGCAGGUCGACUCUAGAAAACAUG”, the binding signal (log2 enrichment (interaction score)) was less than -6.21.
With “GGCUAGAACUAGUGGAUCCCCCGGCGCCCGGCGGCUCGAGCCCGGGUAAGUUGAAAUCGUCUGCAUGCCGCCGGGCGCCAUGCCUGCAGGUCGACUCUAGAAAACAUG”, the binding signal (log2 enrichment (interaction score)) is -5.48.
Regarding “GGCUAGAACUAGUGGAUCCCCCGGCGCCCGGCGGCUCGAGCCCGGGUAAGAUUGAGUCGUCUGCAUGCCGCCGGGCGCCAUGCCUGCAGGUCGACUCUAGAAAACAUG”, the binding signal (log2 enrichment (interaction score)) was -5.88.
Regarding “GGCUAGAACUAGUGGAUCCCCCGGCGCCCGGCGGCUCGAGCCCGGGUAAGUUGACACCGUCUGCAUGCCGCCGGGCGCCAUGCCUGCAGGUCGACUCUAGAAAACAUG”, the binding signal (log2 enrichment (interaction score)) is -3.91.
On to “GGCUAGAACUAGUGGAUCCCCCGGCGCCCGGCGGCUCGAGCCCGGGUAAGUGCUCAGGGUCUGCAUGCCGCCGGGCGCCAUGCCUGCAGGUCGACUCUAGAAAACAUG”, for which the binding signal (log2 enrichment (interaction score)) is -5.87.
As for “GGCUAGAACUAGUGGAUCCCCCGGCGCCCGGCGGCUCGAGCCCGGGUAAGUUAAGGAGGUCUGCAUGCCGCCGGGCGCCAUGCCUGCAGGUCGACUCUAGAAAACAUG”, the binding signal (log2 enrichment (interaction score)) was -6.75.
On to “GGCUAGAACUAGUGGAUCCCCCGGCGCCCGGCGGCUCGAGCCCGGGUAAGUUCGGGAGGUCUGCAUGCCGCCGGGCGCCAUGCCUGCAGGUCGACUCUAGAAAACAUG”, for which the binding signal (log2 enrichment (interaction score)) was -5.45.
Consider “GGCUAGAACUAGUGGAUCCCCCGGCGCCCGGCGGCUCGAGCCCGGGUAAGUUAACUGAGUCUGCAUGCCGCCGGGCGCCAUGCCUGCAGGUCGACUCUAGAAAACAUG”, for which the binding signal (log2 enrichment (interaction score)) was -5.07.
In the case of “GGCUAGAACUAGUGGAUCCCCCGGCGCCCGGCGGCUCGAGCCCGGGUAAGUUGGAGACGUCUGCAUGCCGCCGGGCGCCAUGCCUGCAGGUCGACUCUAGAAAACAUG”, the binding signal (log2 enrichment (interaction score)) was -5.88.
Consider “GGCUAGAACUAGUGGAUCCCCCGGCGCCCGGCGGCUCGAGCCCGGGUAAGAUGUCGAGGUCUGCAUGCCGCCGGGCGCCAUGCCUGCAGGUCGACUCUAGAAAACAUG”, for which the binding signal (log2 enrichment (interaction score)) was -4.39.
For the sequence “GGCUAGAACUAGUGGAUCCCCCGGCGCCCGGCGGCUCGAGCCCGGGUAAGGGGAAUUUGUCUGCAUGCCGCCGGGCGCCAUGCCUGCAGGUCGACUCUAGAAAACAUG”, the binding signal (log2 enrichment (interaction score)) is -6.12.
Then “GGCUAGAACUAGUGGAUCCCCCGGCGCCCGGCGGCUCGAGCCCGGGUAAGUGUCAGUCGUCUGCAUGCCGCCGGGCGCCAUGCCUGCAGGUCGACUCUAGAAAACAUG”, with -5.8; and “GGCUAGAACUAGUGGAUCCCCCGGCGCCCGGCGGCUCGAGCCCGGGUAAGUUACAGUGGUCUGCAUGCCGCCGGGCGCCAUGCCUGCAGGUCGACUCUAGAAAACAUG”, with -5.2; and “GGCUAGAACUAGUGGAUCCCCCGGCGCCCGGCGGCUCGAGCCCGGGUAAGUUUGAGAAGUCUGCAUGCCGCCGGGCGCCAUGCCUGCAGGUCGACUCUAGAAAACAUG”, with -4.8.
As for “GGCUAGAACUAGUGGAUCCCCCGGCGCCCGGCGGCUCGAGCCCGGGUAAGGUCGCACAGUCUGCAUGCCGCCGGGCGCCAUGCCUGCAGGUCGACUCUAGAAAACAUG”, the binding signal (log2 enrichment (interaction score)) was less than -5.27.
On to “GGCUAGAACUAGUGGAUCCCCCGGCGCCCGGCGGCUCGAGCCCGGGUAAGUUCGAAACGUCUGCAUGCCGCCGGGCGCCAUGCCUGCAGGUCGACUCUAGAAAACAUG”, for which the binding signal (log2 enrichment (interaction score)) is -5.36.
Consider “GGCUAGAACUAGUGGAUCCCCCGGCGCCCGGCGGCUCGAGCCCGGGUAAGUUGCCUUCGUCUGCAUGCCGCCGGGCGCCAUGCCUGCAGGUCGACUCUAGAAAACAUG”, for which the binding signal (log2 enrichment (interaction score)) was -5.02.
For the sequence “GGCUAGAACUAGUGGAUCCCCCGGCGCCCGGCGGCUCGAGCCCGGGUAAGUUUUCUGAGUCUGCAUGCCGCCGGGCGCCAUGCCUGCAGGUCGACUCUAGAAAACAUG”, the binding signal (log2 enrichment (interaction score)) was -5.97.

The values are drawn from publication PMC8384837.
